Experimental data: publication doi:10.1101/2023.11.28.569054

Target: T1, GFP-EMC2 (human) (UniProt Q15006)
T1 sequence: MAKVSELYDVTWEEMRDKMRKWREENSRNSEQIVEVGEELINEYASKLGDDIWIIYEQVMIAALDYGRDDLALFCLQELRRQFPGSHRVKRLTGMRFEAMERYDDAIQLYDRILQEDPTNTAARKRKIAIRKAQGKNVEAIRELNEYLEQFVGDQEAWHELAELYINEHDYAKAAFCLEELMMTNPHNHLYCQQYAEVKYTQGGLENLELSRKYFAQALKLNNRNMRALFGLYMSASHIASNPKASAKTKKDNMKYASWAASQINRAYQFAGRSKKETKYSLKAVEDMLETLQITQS
Assay: co-IP

binding: binds
Substance: back of Sec61 (BOS) complex

No constants are given. Whether binding was seen depends on the method and setting. In cells and extracts the contact can be indirect. Binding calls can cover weak binding; strength is not graded here. Tags and fused reporters may be left off the sequences shown.
